The text below walks through data of article PMC9366350.

The exact form of at least one protein or probe is not confirmed.

In the data set the test system is GST-EbMYBP1 (Erigeron breviscapus). Description: EMSA. As to conditions: EMSA with 5' 6-FAM probes and unlabeled competitors; pH and temperature not stated; recombinant protein; protein details: GST (pGEX-4T-1); label: FAM (5' 6-FAM/FITC). Background: A gel shift assay detects complexes by their altered migration in electrophoresis.
For the sequence “CAGGGTTAAAGTTAGTTGTAAGGAGAGG (double strand) [pNtF3H probe]”, the binding result was “binds”.

With “CCTCTCGCTCTACCTAACTACAAATTAT (double strand) [pNtCHI probe]”, the binding result was “binds”. In the case of “GAAAAAGTGAAGTTTGGTAGGTAGTATTAATGAA (double strand) [pNtFLS2 probe]”, the binding result is recorded as “binds”. For “GATCTTGAGAAGTAGGTAGCTAGCTAATTATTG (double strand) [pNtCHS probe]” the value was “binds”.
